Sequences of proteins named here, by UniProt entry; tags and fusion partners are left off. A change or cut given only in a name is not applied to a line headed by its entry.
UniProt C8V7D1: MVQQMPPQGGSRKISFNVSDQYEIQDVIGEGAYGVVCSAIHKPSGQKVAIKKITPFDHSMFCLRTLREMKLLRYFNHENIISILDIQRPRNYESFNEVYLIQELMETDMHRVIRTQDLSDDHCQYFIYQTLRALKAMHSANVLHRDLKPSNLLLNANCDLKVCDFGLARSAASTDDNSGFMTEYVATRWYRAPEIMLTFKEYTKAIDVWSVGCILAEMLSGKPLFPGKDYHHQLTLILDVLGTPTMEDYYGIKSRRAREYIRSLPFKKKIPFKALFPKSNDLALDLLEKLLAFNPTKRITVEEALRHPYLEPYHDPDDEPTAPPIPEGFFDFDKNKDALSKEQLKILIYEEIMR

In article PMC6438568:

Experiments:
[1] = target: SipB (AN1010), SIKE-like protein (Aspergillus nidulans) (UniProt Q5BEM0); experiment: affinity purification with mass spectrometry; TAP of Sip-TAP baits (SipA, SipB, SipC, SipD, SipE) from crude extracts of strains without StrA (strAΔ), LC-MS/MS; vegetative growth 24 h in liquid GMM
[2] = target: SipB (AN1010), SIKE-like protein (Aspergillus nidulans) (UniProt Q5BEM0); experiment: affinity purification with mass spectrometry; tandem affinity purification (TAP) of the TAP-tagged bait (StrA, SipA, SipB, SipC, SipD or SipE, native locus) from A. nidulans crude extracts, LC-MS/MS; vegetative growth 24 h in liquid GMM at 37°C, StrA present; StrA-TAP also from 6 h light- and dark-induced cultures and in the absence of SipA; TAP of the WT strain as non-specific control; two biological replicates
[3] = target: SipD (AN4632), SLMAP-related protein (Aspergillus nidulans) (UniProt Q5B498); experiment: affinity purification with mass spectrometry; TAP of Sip-TAP baits (SipA, SipB, SipC, SipD, SipE) from crude extracts of strains without StrA (strAΔ), LC-MS/MS; vegetative growth 24 h in liquid GMM
[4] = target: SipD (AN4632), SLMAP-related protein (Aspergillus nidulans) (UniProt Q5B498); experiment: affinity purification with mass spectrometry; tandem affinity purification (TAP) of the TAP-tagged bait (StrA, SipA, SipB, SipC, SipD or SipE, native locus) from A. nidulans crude extracts, LC-MS/MS; vegetative growth 24 h in liquid GMM at 37°C, StrA present; StrA-TAP also from 6 h light- and dark-induced cultures and in the absence of SipA; TAP of the WT strain as non-specific control; two biological replicates
[5] = target: MAPK MpkB, GFP fusion (Aspergillus nidulans) (UniProt C8V7D1); experiment: affinity purification with mass spectrometry; GFP pull-down of MpkB-GFP from A. nidulans crude extracts, LC-MS/MS; vegetative growth 24 h at 37°C, in the presence or absence of StrA; one or two biological replicates

SipD (AN4632), SLMAP-related protein (from UniProt Q5B498)
binding [1]: binds
binding [2]: binds

SipB (AN1010), SIKE-like protein (from UniProt Q5BEM0)
binding [3]: binds
binding [4]: binds

B1: transcription factor SteA (protein, UniProt O74252 1-692)
chain: MYSQHGAPMAPPQKPETFMLSNEAQQSLPHDAQVALQQVDNLKYFLLSAPVDWQPDQLIRRFLLPTGDYISCVLWSNLFHISGTDIVRCLAFRFQAFGRPVKNSKKFEEGIFSDLRNLKAGTDATLEEPKSPFLDFLYKNNCIRTQKKQKVFYWYSVPHDRLFLDALERDLKREKMGQEATTVAVSEPALSFEFDSSQSLYEQLTKAQQANSSSFAAHASTTYGQSASPVVRTVDAMPPPQMAPQMAPPSIPLLTDESANSQMYTSIPMPNPIPQNLIKREADYGAIQYDRNGMPIARIHQRHSSMPTFVEYSPAPSFVSSQYEDYSNRGLSFEPVTPPQHSSHIGPEPAYIANEDTGLYTAIPEMSTGSGFNPMMHLPPSNLASAHFPTPARTFHSNVYSVLEGSPTYKQRRRRSSIPPGAANPVTTGTHSPAPALSYAAHKPSDLRRSVSSSVAPGDTDDSRHESLHRSVNSTYTATLPQKNLMHEMSRNGTPLSSVGEHREQSSIPLTQAEDLPALPANGTVESGAPNGVGHKSDRYATGPVRRARSATMMELGPYPQKSHSCPIPSCGRLFKRLEHLKRHVRTHTQERPYPCPYCNKAFSRSDNLAQHRRIHEAQQDGQPLVHEDDLENDDNESVSHDEDESPSESVHPAVPGVHGMTSMPSSVALQSTMGSMMGSHMIAPQLLQQQI
binding [5]: binds

No constants are given. Whether binding was seen depends on the method and setting. Binding seen in cells or lysates may run through a third protein. Here binding means that the protein was enriched with, or labelled near, the bait; the list need not be complete.
